Our source for the binding values is PMC11809379.

Sequences of proteins named here, by UniProt entry; tags and fusion partners are left off.
UniProt Q9UPY5: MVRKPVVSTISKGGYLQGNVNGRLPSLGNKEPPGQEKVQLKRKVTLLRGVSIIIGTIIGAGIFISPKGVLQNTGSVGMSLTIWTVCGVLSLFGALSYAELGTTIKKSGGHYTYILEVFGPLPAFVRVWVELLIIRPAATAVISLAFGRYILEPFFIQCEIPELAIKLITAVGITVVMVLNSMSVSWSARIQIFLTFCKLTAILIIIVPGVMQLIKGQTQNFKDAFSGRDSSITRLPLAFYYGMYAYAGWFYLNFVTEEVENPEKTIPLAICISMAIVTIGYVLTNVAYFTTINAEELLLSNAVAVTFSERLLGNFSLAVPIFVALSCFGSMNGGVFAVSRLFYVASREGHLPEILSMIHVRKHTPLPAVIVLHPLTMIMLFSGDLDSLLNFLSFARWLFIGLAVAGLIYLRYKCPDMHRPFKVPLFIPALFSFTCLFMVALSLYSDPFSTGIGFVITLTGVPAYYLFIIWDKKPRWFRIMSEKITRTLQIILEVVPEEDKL

Results are given in words; binding and its absence hold for the method and conditions named. In cells and extracts the contact can be indirect. Some entries that bind do so weakly or less than the wild type. For some assays here: Sequences can lack the tags named with a protein.

Assay [1] concerns the target Flag-tagged SLC7A11 (solute carrier family 7 member 11) (UniProt Q9UPY5). As to the kind of experiment: co-IP; HEK293T cells with expression vectors for Flag-tagged SLC7A11 and HA-tagged USP19 (legend: MIHA cells); cell extracts, immunoblot; which tag was precipitated is not stated. A general note: A western blot detects proteins with antibodies after separation by electrophoresis.

The target in assay [2] is SLC7A11 (solute carrier family 7 member 11), endogenous (human (endogenous in MIHA)) (UniProt Q9UPY5). In words: co-IP; endogenous proteins in MIHA cells; immunoprecipitation with anti-SLC7A11, immunoblot.

B1: HA-tagged USP19 (ubiquitin-specific protease 19) (enzyme, UniProt O94966 1-1318)
chain: MSGGASATGPRRGPPGLEDTTSKKKQKDRANQESKDGDPRKETGSRYVAQAGLEPLASGDPSASASHAAGITGSRHRTRLFFPSSSGSASTPQEEQTKEGACEDPHDLLATPTPELLLDWRQSAEEVIVKLRVGVGPLQLEDVDAAFTDTDCVVRFAGGQQWGGVFYAEIKSSCAKVQTRKGSLLHLTLPKKVPMLTWPSLLVEADEQLCIPPLNSQTCLLGSEENLAPLAGEKAVPPGNDPVSPAMVRSRNPGKDDCAKEEMAVAADAATLVDEPESMVNLAFVKNDSYEKGPDSVVVHVYVKEICRDTSRVLFREQDFTLIFQTRDGNFLRLHPGCGPHTTFRWQVKLRNLIEPEQCTFCFTASRIDICLRKRQSQRWGGLEAPAARVGGAKVAVPTGPTPLDSTPPGGAPHPLTGQEEARAVEKDKSKARSEDTGLDSVATRTPMEHVTPKPETHLASPKPTCMVPPMPHSPVSGDSVEEEEEEEKKVCLPGFTGLVNLGNTCFMNSVIQSLSNTRELRDFFHDRSFEAEINYNNPLGTGGRLAIGFAVLLRALWKGTHHAFQPSKLKAIVASKASQFTGYAQHDAQEFMAFLLDGLHEDLNRIQNKPYTETVDSDGRPDEVVAEEAWQRHKMRNDSFIVDLFQGQYKSKLVCPVCAKVSITFDPFLYLPVPLPQKQKVLPVFYFAREPHSKPIKFLVSVSKENSTASEVLDSLSQSVHVKPENLRLAEVIKNRFHRVFLPSHSLDTVSPSDTLLCFELLSSELAKERVVVLEVQQRPQVPSVPISKCAACQRKQQSEDEKLKRCTRCYRVGYCNQLCQKTHWPDHKGLCRPENIGYPFLVSVPASRLTYARLAQLLEGYARYSVSVFQPPFQPGRMALESQSPGCTTLLSTGSLEAGDSERDPIQPPELQLVTPMAEGDTGLPRVWAAPDRGPVPSTSGISSEMLASGPIEVGSLPAGERVSRPEAAVPGYQHPSEAMNAHTPQFFIYKIDSSNREQRLEDKGDTPLELGDDCSLALVWRNNERLQEFVLVASKELECAEDPGSAGEAARAGHFTLDQCLNLFTRPEVLAPEEAWYCPQCKQHREASKQLLLWRLPNVLIVQLKRFSFRSFIWRDKINDLVEFPVRNLDLSKFCIGQKEEQLPSYDLYAVINHYGGMIGGHYTACARLPNDRSSQRSDVGWRLFDDSTVTTVDESQVVTRYAYVLFYRRRNSPVERPPRAGHSEHHPDLGPAAEAAASQASRIWQELEAEEEPVPEGSGPLGPWGPQDWVGPLPRGPTTPDEGCLRYFVLGTVAALVALVLNVFYPLVSQSRWR
For the molecule B1, the binding entry in assay [1] was “binds”.

B2: USP19 (ubiquitin-specific protease 19), endogenous (enzyme, UniProt O94966 1-1318)
chain: MSGGASATGPRRGPPGLEDTTSKKKQKDRANQESKDGDPRKETGSRYVAQAGLEPLASGDPSASASHAAGITGSRHRTRLFFPSSSGSASTPQEEQTKEGACEDPHDLLATPTPELLLDWRQSAEEVIVKLRVGVGPLQLEDVDAAFTDTDCVVRFAGGQQWGGVFYAEIKSSCAKVQTRKGSLLHLTLPKKVPMLTWPSLLVEADEQLCIPPLNSQTCLLGSEENLAPLAGEKAVPPGNDPVSPAMVRSRNPGKDDCAKEEMAVAADAATLVDEPESMVNLAFVKNDSYEKGPDSVVVHVYVKEICRDTSRVLFREQDFTLIFQTRDGNFLRLHPGCGPHTTFRWQVKLRNLIEPEQCTFCFTASRIDICLRKRQSQRWGGLEAPAARVGGAKVAVPTGPTPLDSTPPGGAPHPLTGQEEARAVEKDKSKARSEDTGLDSVATRTPMEHVTPKPETHLASPKPTCMVPPMPHSPVSGDSVEEEEEEEKKVCLPGFTGLVNLGNTCFMNSVIQSLSNTRELRDFFHDRSFEAEINYNNPLGTGGRLAIGFAVLLRALWKGTHHAFQPSKLKAIVASKASQFTGYAQHDAQEFMAFLLDGLHEDLNRIQNKPYTETVDSDGRPDEVVAEEAWQRHKMRNDSFIVDLFQGQYKSKLVCPVCAKVSITFDPFLYLPVPLPQKQKVLPVFYFAREPHSKPIKFLVSVSKENSTASEVLDSLSQSVHVKPENLRLAEVIKNRFHRVFLPSHSLDTVSPSDTLLCFELLSSELAKERVVVLEVQQRPQVPSVPISKCAACQRKQQSEDEKLKRCTRCYRVGYCNQLCQKTHWPDHKGLCRPENIGYPFLVSVPASRLTYARLAQLLEGYARYSVSVFQPPFQPGRMALESQSPGCTTLLSTGSLEAGDSERDPIQPPELQLVTPMAEGDTGLPRVWAAPDRGPVPSTSGISSEMLASGPIEVGSLPAGERVSRPEAAVPGYQHPSEAMNAHTPQFFIYKIDSSNREQRLEDKGDTPLELGDDCSLALVWRNNERLQEFVLVASKELECAEDPGSAGEAARAGHFTLDQCLNLFTRPEVLAPEEAWYCPQCKQHREASKQLLLWRLPNVLIVQLKRFSFRSFIWRDKINDLVEFPVRNLDLSKFCIGQKEEQLPSYDLYAVINHYGGMIGGHYTACARLPNDRSSQRSDVGWRLFDDSTVTTVDESQVVTRYAYVLFYRRRNSPVERPPRAGHSEHHPDLGPAAEAAASQASRIWQELEAEEEPVPEGSGPLGPWGPQDWVGPLPRGPTTPDEGCLRYFVLGTVAALVALVLNVFYPLVSQSRWR
For the molecule B2, the binding entry in assay [2] was “binds”.
